Data published in patent US9326956B2, “Methods for improving brain development and cognitive function using beta-hydroxy-beta methylbutyrate” (Abbott Laboratories, priority 2011, dated 2016).
For at least one compound, name, drawing or mass did not settle the structure.

Assays:
[1] = test system: MEF2 transcription factor; test: MEF2-dependent transcription luciferase activity (pGL3-4xMEF transfection); format: cell-based; conditions: Neuro 2A cells; for effect of inhibitor on the HMB-mediated increase in MEF2: inhibitor added with HMB, FIGS. 5B-5D
Description: For the transfection experiments in this Example, Neuro-2A cells were used at 80-90% confluence grown in Dulbecco's Modified Eagle's medium (DMEM). Cells were exposed for 5 hours to plasmid pGL3-4×MEF, which contains 4 copies in tandem of the MEF2D binding DNA sequence prior to the sequence of DNA which codes for firefly luciferase. Effectors were added to the medium for 18 h and luciferase activity was determined. For the study of inhibition of signaling factors, inhibitors of the phosphatidyl-inositol 3 kinase (LY294002), ERK 1/2 (PD98059) and mTORC1 activations (rapamycin) were added to the cells.
Data are expressed as mean±SEM. Student t-test was used to analyze the results.

Akt = test: Phosphorylative status of Akt by western blot in Neuro 2A cells; format: cell-based; conditions: FIG. 3C
Neuro 2A cells = test: Cell proliferation/viability, MTT colorimetric assay; format: cell-based; conditions: FIG. 6
mTOR = test: Phosphorylative status of mTOR by western blot in Neuro 2A cells; format: cell-based; conditions: FIG. 3A
ERK 1/2 = test: Phosphorylative status of ERK 1/2 by western blot in Neuro 2A cells; format: cell-based; conditions: FIG. 3B
rats = test: Depression forced swimming test (FST), latency to immobility; format: in vivo; conditions: oral, higher doses of HMB (250 or 500 mg/kg tested), P=0.07, FIG. 7

Structure (SMILES) | MEF2-dependent transcription luciferase activity ([1]; media supplemented with HMB, 18 h, FIG. 5A) | phosphorylative status of Akt (Akt) | neuronal proliferation and viability (Neuro 2A cells) | phosphorylation of mTOR (mTOR) | phosphorylative status of ERK 1/2 (ERK 1/2) | latency to immobility (rats) | effect of inhibitor on the HMB-mediated increase in MEF2 [1]
CC(C)(O)CC(=O)O [HMB, beta-hydroxy-beta-methylbutyrate] | significant increase | increased | stimulated | significant increase | increased | enhanced | –
O=c1cc(N2CCOCC2)oc2c(-c3ccccc3)cccc12 [LY294002] | – | – | – | – | – | – | totally blocked
CO[C@H]1C[C@@H]2CC[C@@H](C)[C@@](O)(O2)C(=O)C(=O)N2CCCC[C@H]2C(=O)O[C@H]([C@H](C)C[C@@H]2CC[C@@H](O)[C@H](OC)C2)CC(=O)[C@H](C)/C=C(\C)[C@@H](O)[C@@H](OC)C(=O)[C@H](C)C[C@H](C)/C=C/C=C/C=C/1C [rapamycin] | – | – | – | – | – | – | had no effect
